Test results reported in PMC12863303.
Results are given in words; binding and its absence hold for the method and conditions named. In cells and extracts the contact can be indirect. Some results given as binding are weak or reduced against the parent protein; the word gives no strength. Tags and fused reporters may be left off the sequences shown. Values belong to the binder of their own block, whether it stands above or below them.

By UniProt entry, the sequences of proteins in these tests, tags left out.
UniProt P0DMV8: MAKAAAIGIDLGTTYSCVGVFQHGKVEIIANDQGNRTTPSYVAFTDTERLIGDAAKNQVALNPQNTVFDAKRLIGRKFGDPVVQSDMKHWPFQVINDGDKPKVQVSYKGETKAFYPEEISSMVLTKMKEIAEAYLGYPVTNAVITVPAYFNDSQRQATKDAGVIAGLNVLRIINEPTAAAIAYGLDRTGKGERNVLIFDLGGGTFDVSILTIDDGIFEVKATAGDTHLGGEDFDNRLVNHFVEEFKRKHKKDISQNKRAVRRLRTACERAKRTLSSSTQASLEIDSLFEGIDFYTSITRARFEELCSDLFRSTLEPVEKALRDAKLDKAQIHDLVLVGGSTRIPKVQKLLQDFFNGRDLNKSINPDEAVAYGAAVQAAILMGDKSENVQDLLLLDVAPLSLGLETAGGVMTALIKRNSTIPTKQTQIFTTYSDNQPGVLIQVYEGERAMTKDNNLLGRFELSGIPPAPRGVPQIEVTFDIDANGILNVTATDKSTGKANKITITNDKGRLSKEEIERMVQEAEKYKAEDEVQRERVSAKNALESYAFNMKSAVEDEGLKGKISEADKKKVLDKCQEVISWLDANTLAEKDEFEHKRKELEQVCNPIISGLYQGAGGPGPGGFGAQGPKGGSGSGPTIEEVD

Target: GFP–Hsp70 (HSPA1A) (human) (UniProt P0DMV8)
Test: co-IP; HeLa cells co-transfected with Myc-NONO and GFP or GFP–Hsp70; untreated or SFN for 6 h; RIPA lysate; GFP-Trap Agarose 1 h at 4°C; wash 10 mM Tris-HCl pH 7.5, 150 mM NaCl, 0.05% NP-40, 0.5 mM EDTA; western blot

binding: binds
B1: Myc epitope-tagged NONO (protein, UniProt Q15233 1-471)
chain: MQSNKTFNLEKQNHTPRKHHQHHHQQQHHQQQQQQPPPPPIPANGQQASSQNEGLTIDLKNFRKPGEKTFTQRSRLFVGNLPPDITEEEMRKLFEKYGKAGEVFIHKDKGFGFIRLETRTLAEIAKVELDNMPLRGKQLRVRFACHSASLTVRNLPQYVSNELLEEAFSVFGQVERAVVIVDDRGRPSGKGIVEFSGKPAARKALDRCSEGSFLLTTFPRPVTVEPMDQLDDEEGLPEKLVIKNQQFHKEREQPPRFAQPGSFEYEYAMRWKALIEMEKQQQDQVDRNIKEAREKLEMEMEAARHEHQVMLMRQDLMRRQEELRRMEELHNQEVQKRKQLELRQEEERRRREEEMRRQQEEMMRRQQEGFKGTFPDAREQEIRMGQMAMGGAMGINNRGAMPPAPVPAGTPAPPGPATMMPDGTLGLTPPTTERFGQAATMEGIGAIGGTPPAFNRAAPGAEFAPNKRRRY

binding: binds
B2: endogenous NONO (protein, UniProt Q15233 1-471)
chain: B1 chain
